For two molecules, binding results are on record in PMC11476264.

No constants are given. Whether binding was seen depends on the method and setting. In cells and extracts the contact can be indirect. Some results given as binding are weak or reduced against the parent protein; the word gives no strength. Sequences can lack the tags named with a protein.

In one assay the target is T1, Flag-tagged ZEB1 (UniProt P37275).
T1 sequence: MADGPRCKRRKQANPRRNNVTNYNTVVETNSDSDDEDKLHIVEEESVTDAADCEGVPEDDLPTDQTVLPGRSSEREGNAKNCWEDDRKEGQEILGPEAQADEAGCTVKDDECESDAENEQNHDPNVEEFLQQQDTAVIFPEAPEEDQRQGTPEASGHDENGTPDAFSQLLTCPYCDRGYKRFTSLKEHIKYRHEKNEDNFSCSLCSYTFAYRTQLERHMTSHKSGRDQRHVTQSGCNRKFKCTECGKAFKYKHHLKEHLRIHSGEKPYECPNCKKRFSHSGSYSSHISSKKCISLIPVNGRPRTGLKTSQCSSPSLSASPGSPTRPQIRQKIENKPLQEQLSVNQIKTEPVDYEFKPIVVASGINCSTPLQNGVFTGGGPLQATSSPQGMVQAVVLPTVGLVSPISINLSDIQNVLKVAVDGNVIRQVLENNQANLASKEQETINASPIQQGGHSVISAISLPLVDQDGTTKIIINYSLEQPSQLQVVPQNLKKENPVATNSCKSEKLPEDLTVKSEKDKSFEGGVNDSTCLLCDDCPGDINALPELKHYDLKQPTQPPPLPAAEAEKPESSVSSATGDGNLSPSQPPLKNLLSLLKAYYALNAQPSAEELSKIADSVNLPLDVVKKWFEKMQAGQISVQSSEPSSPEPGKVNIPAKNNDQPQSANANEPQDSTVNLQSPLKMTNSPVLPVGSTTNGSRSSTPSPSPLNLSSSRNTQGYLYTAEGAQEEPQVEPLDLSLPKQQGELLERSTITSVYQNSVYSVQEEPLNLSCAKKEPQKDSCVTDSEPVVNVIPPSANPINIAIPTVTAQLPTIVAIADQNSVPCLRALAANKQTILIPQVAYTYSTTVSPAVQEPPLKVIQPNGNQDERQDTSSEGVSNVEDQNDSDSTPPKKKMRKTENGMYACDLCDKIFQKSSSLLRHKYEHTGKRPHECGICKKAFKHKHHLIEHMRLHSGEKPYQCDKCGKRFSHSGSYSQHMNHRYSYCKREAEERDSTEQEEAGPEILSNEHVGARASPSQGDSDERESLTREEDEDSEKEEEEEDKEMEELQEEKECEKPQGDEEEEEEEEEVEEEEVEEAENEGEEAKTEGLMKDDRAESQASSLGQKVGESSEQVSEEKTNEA
In words: co-IP; HEK293T co-transfected with Myc-tagged FBXO11 and Flag-tagged ZEB1; 10 μM MG132 for 6 h; RIPA lysate; immunoprecipitation with anti-Myc or anti-Flag antibody and protein A/G agarose at 4 °C; blotted with anti-ZEB1 and anti-FBXO11.

Assay [1] concerns the target T2, His-tagged ZEB1 CZF domain truncated protein (UniProt P37275).
T2 sequence: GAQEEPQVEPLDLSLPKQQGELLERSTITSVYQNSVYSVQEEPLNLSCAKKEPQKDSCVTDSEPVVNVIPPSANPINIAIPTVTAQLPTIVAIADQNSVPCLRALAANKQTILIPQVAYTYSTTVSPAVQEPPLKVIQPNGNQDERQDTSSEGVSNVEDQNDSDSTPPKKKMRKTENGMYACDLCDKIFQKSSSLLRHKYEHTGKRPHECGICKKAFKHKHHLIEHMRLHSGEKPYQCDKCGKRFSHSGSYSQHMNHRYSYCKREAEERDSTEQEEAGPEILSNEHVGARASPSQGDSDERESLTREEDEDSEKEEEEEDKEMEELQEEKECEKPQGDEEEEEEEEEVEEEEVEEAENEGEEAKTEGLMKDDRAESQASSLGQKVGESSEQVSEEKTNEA
The assay is described as follows: pull-down; His-tagged ZEB1 truncated proteins held on Ni-NTA beads, incubated with sonicated lysate of HEK293T cells transfected with FBXO11-Myc (50 mM NaH2PO4 pH 8, 300 mM NaCl, 10 mM imidazole); Western blot; only the target purified. (In general: Immunoblotting shows a protein as a band on a membrane.)

Another assay has as its target T3, Myc-tagged FBXO11 (UniProt Q86XK2).
T3 sequence: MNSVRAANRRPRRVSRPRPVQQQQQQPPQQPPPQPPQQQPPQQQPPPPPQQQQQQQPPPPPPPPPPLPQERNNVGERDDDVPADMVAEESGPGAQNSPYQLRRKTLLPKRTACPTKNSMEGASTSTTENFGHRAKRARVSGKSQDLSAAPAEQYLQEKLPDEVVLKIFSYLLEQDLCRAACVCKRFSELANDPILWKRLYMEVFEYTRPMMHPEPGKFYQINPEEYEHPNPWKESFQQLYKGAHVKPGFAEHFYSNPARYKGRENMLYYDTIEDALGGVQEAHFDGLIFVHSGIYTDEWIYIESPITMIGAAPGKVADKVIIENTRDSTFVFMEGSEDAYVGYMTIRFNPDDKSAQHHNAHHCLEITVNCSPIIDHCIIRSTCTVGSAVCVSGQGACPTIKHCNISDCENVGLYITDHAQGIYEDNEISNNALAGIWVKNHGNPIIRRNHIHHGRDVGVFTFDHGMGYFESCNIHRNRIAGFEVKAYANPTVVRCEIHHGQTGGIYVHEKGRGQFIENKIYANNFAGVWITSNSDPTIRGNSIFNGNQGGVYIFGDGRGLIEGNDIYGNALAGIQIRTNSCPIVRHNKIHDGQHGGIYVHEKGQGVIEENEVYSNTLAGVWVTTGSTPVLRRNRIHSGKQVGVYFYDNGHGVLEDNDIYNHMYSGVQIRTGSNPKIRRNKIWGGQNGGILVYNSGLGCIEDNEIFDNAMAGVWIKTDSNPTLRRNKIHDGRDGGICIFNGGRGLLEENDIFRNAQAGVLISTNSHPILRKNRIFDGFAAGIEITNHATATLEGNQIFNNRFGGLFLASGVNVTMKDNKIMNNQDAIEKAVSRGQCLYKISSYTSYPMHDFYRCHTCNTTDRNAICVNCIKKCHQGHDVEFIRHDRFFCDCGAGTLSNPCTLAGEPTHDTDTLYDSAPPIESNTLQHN
The assay is described as follows: co-IP; HEK293T co-transfected with Myc-tagged FBXO11 and Flag-tagged ZEB1; 10 μM MG132 for 6 h; RIPA lysate; immunoprecipitation with anti-Myc or anti-Flag antibody and protein A/G agarose at 4 °C; blotted with anti-ZEB1 and anti-FBXO11.

Assay [2] deals with T4, His-tagged FBXO11 protein (UniProt Q86XK2).
T4 sequence: T3 sequence
The assay is described as follows: pull-down; His-tagged FBXO11 held on Ni-NTA beads, incubated with sonicated lysate of HEK293T cells transfected with ZEB1-Flag (50 mM NaH2PO4 pH 8, 300 mM NaCl, 10 mM imidazole); Western blot; only the target purified.

B1: Myc-tagged FBXO11 (protein, UniProt Q86XK2 1-927)
chain: T3 sequence
On to B1, for which the binding entry (with Flag-tagged ZEB1; in assay [1]) was “binds” each time.

B2: Flag-tagged ZEB1 (protein, UniProt P37275 1-1124)
chain: T1 sequence
B2: the binding result (with Myc-tagged FBXO11; in assay [2]) was “binds” in each case.
